# Library compounds against nucleic acid targets

Data from the ROBIN nucleic acid binder screens, doi:10.1002/anie.202211358.

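Compounds were printed on reactive glass slides in duplicate spots, a dye-labelled oligonucleotide was laid over them, and the fluorescence left after washing was read. For the PreQ1, TPP and SAM-II riboswitches the laboratory earlier reported (doi:10.1038/s41467-019-09493-3) 1 µM RNA, 2 h, and a rule that included a mean Z-score above 3 (spot signal-to-noise against the whole library), a score well above that on a control array, and duplicate spots agreeing (coefficient of variation under 100). The data file gives only the calls; its cut-offs may differ, and compounds hitting several targets are kept. These are primary screening calls, not affinities; a compound without a hit may have attached poorly or may still bind in solution.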
Key: hit = hit, no hit = tested without a hit.
The compounds are a random part of those screened.
A target missing from an entry has no call listed here.

Targets, with sequences 5′ to 3′:
TPP: TPP riboswitch RNA three-way junction, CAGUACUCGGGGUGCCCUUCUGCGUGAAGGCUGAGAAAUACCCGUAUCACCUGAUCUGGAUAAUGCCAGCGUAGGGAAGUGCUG. Hit rate about 0.7% of about 24,000 compounds.
SAM-II: SAM-II riboswitch RNA pseudoknot, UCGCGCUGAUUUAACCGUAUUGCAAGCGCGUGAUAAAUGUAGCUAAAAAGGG. Hit rate about 1% of about 21,000 compounds.
PreQ1: PreQ1 riboswitch RNA pseudoknot, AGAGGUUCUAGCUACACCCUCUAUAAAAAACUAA. From B. subtilis. Hit rate about 0.7% of about 24,000 compounds.

For Cn1ccnc1C(O)c1ccc(N)cc1 (stereo unspecified) the calls were TPP: no hit; SAM-II: no hit; PreQ1: no hit.
For CCOC(=O)C1=C(C)OC(N)=C(C#N)C12C(=O)N(C)c1ccccc12 (stereo unspecified) the calls were TPP: no hit; SAM-II: no hit; PreQ1: no hit.
For Nc1ccc(NC(=O)Nc2ccc(N)cc2)cc1 the calls were TPP: no hit; SAM-II: no hit; PreQ1: no hit.
For CN(C)[C@@H]1C[C@@H](CO)N(Cc2c(Cl)nc3sccn23)C1 the calls were TPP: no hit; SAM-II: no hit; PreQ1: no hit.
For Cl.Cl.Cl.O[C@@H](COc1cccc2ncccc12)CN1CCN(C2c3ccccc3[C@@H]3[C@H](c4ccccc42)C3(F)F)CC1 (stereo partly specified) the calls were TPP: no hit; SAM-II: no hit; PreQ1: no hit.
For Cc1cc(C)c2[nH]c(C)c(CCN)c2c1 the calls were TPP: no hit; SAM-II: no hit; PreQ1: no hit.
For N#CC1=C(N)OC2=C(C(=O)CCC2)C1c1c(F)cccc1F (stereo unspecified) the calls were TPP: no hit; SAM-II: no hit; PreQ1: no hit.
For O=S1(=O)C=CC(NC2CCC3(CCNCC3)CC2)C1 (stereo unspecified) the calls were TPP: no hit; SAM-II: no hit; PreQ1: no hit.
For OC1CCC(Nc2ncc3nc(Nc4c(F)cc(F)cc4F)n([C@@H]4CCOC4)c3n2)CC1 (stereo partly specified) the calls were TPP: no hit; SAM-II: no hit; PreQ1: no hit.
For CCNCc1ccc(OCc2ccc3c(c2)n(C)c(=O)n3C)c(OC)c1 the calls were TPP: no hit; PreQ1: no hit.
For Cn1ccnc1CN1CCN(C(=O)[C@H]2CNC[C@H](C(=O)N3CCOCC3)C2)CC1 the calls were TPP: no hit; SAM-II: no hit; PreQ1: no hit.
For CCN(CCCNc1c(-c2ccc(C)cc2)c(=O)c1=O)Cc1ccccc1 the calls were TPP: no hit; PreQ1: no hit.
For Cc1cc(C)c2c(N)c(-c3ccccn3)sc2n1 the calls were TPP: no hit; SAM-II: no hit; PreQ1: no hit.
For O=C(c1nc2c(s1)CCCC2)N1[C@H]2CCNC[C@@H]1CC2 the calls were TPP: no hit; SAM-II: no hit; PreQ1: hit.
For Cn1nc(C(=O)N2C[C@@H](CN3CCOCC3)C[C@H](CO)C2)ccc1=O the calls were TPP: no hit; SAM-II: no hit; PreQ1: no hit.
For COc1ccc(C)cc1-n1nnc(-c2nc(-c3ccccc3Cl)no2)c1N the calls were TPP: no hit; PreQ1: no hit.
For C/C(=N/NC(=S)N1CC2CCC(CC2)C1)c1cnccn1 the calls were TPP: no hit; SAM-II: no hit; PreQ1: no hit.
For O=C(NCCSc1ccccc1)[C@H]1CNC[C@@H](C(=O)N2CCOCC2)C1 the calls were TPP: no hit; SAM-II: no hit; PreQ1: no hit.
For O=C1c2ccccc2-c2n[nH]c(=O)c3ccc(NC4CCCCC4)c1c23 the calls were TPP: no hit; SAM-II: no hit; PreQ1: no hit.
For Cc1ccc(Nc2nc(-c3ccccn3)cs2)c(C)c1 the calls were TPP: no hit; SAM-II: no hit; PreQ1: no hit.

The last 2 entries again:

structure,TPP,SAM-II,PreQ1
O=C1c2ccccc2-c2n[nH]c(=O)c3ccc(NC4CCCCC4)c1c23,no hit,no hit,no hit
Cc1ccc(Nc2nc(-c3ccccn3)cs2)c(C)c1,no hit,no hit,no hit